The assay has as its target chicken GRIFIN (chicken). Put plainly: crystal structure; cGRIFIN with the histo-blood-group B tetrasaccharide (1:2 molar ratio), crystals grown in 15% w/v PEG 400, 100 mM MES pH 6.5, 295 K; both purified.

The chains behind the UniProt entries cited, without tags or fusion partners. Where a name states a change or a piece, a line headed by the entry shows the natural chain unless it says otherwise. A line that says so, or that is headed by a name, gives the form on record, which may keep a tag or linker.
chicken GRIFIN (A0A8V0ZCX7, form named): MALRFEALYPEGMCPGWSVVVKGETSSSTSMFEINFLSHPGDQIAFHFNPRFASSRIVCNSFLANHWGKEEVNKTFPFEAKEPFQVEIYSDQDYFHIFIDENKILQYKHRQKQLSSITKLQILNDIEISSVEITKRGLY

These are yes or no findings as the source states them, for the method shown. Some entries that bind do so weakly or less than the wild type.

As to “chicken GRIFIN (from UniProt A0A8V0ZCX7 1-139)”, the binding result was “binds”.
